# Laboratory results published in PubChem BioAssay AID504648 (National Center for Advancing Translational Sciences (NCATS), 2011).
# Among all 390,000 compounds or so, about 610 (0.16%) were called active. The inconclusive results got no clear call from the source; some entries with a clear call stand among them for comparison. Calls come from the whole dose curve; as a rule, active = well fitted inhibition curve with a large enough effect; inconclusive = small, poorly fitted or top-dose-only effect, or effect the other way, or another doubt; inactive = no such curve, though single readings can be large or run the other way. Where the call is inconclusive, the potency comes from a doubtful curve fit.
# Experiment: Nrf2 qHTS screen for inhibitors: counterscreen for cytotoxicity
# Conditions: A549 ARE-Fluc cells, CellTiter-Fluor viability, 18-24 h; series mostly up to 46 µM
# Procedure, shortened: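 A549 ARE-Fluc cells in 5% FBS OPTI-MEM, 5000 cells/well, rested 2 h then exposed to compounds in concentration-response for 18-24 h at 37 °C. Viability by CellTiter-Fluor fluorescence (Ex 405/Em 525) after 30 min; luciferase luminescence (BugLite, 15 min, RT) read afterwards.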
# Potency is the fitted concentration of half-maximal effect.
row,SMILES,Potency
1,OCCN(/C=N/c1nc(-c2ccc(Br)cc2)cs1)CCO,"inconclusive: 10.3 µM [activator, partial curve, poor fit]"
2,CC(=O)Oc1c(Cl)cc(N(C(C)=O)S(=O)(=O)c2ccccc2)c2ccccc12,"inconclusive: 20.6 µM [falling, partial curve, poor fit]"
3,CCC1CSC(Nc2ccc(C(=O)/C=C/c3ccc(Br)cc3)cc2)=N1 (configuration not stated),inactive
4,Cc1cc(N2O[C@]34C=C[C@]25C[C@@H](O)CC[C@]5(C)C3CC[C@]2(C)[C@@H]([C@H](C)/C=C/[C@H](C)C(C)C)CC[C@H]24)no1 (some centres not stated),inactive
5,COc1ccc(/C=C/C(=O)Nc2c(C)nn(C)c2C)cc1COc1ccc(Br)cc1,"inconclusive: 20.6 µM [falling, partial curve, poor fit]"
6,Cc1ccc(-c2cc(C(=O)Nc3ccccc3C(N)=O)c3ccccc3n2)o1,inactive
7,COc1ccc([N+](=O)[O-])cc1NC(=S)NC(NC(=O)Cc1ccc(OC)c(OC)c1)C(Cl)(Cl)Cl (configuration not stated),"inconclusive: 9.2 µM [falling, partial curve, poor fit]"
8,CSc1nsc(SCC(=O)Nc2nc3ccc(C)cc3s2)n1,"inconclusive: 29.1 µM [activator, single point]"
9,CCc1nnc(NS(=O)(=O)c2ccc(N/C=C\C(=O)c3ccc4ccccc4c3)cc2)s1,"inconclusive: 9.2 µM [falling, partial curve, poor fit]"
10,CCn1c(COc2ccc(=O)n(-c3ccccc3)n2)nnc1SCc1ccc(OC)cc1,"inconclusive: 16.4 µM [activator, single point]"
11,Cc1cc(C(=O)N/N=C/c2ccccc2[N+](=O)[O-])c(C)o1,"inconclusive: 6.51 µM [falling, partial curve, poor fit]"
12,CS(=O)(=O)N1CCC(C(=O)NCCC2=CCCCC2)CC1,"inconclusive: 6.51 µM [falling, single point]"
13,COc1ccc(CCc2nnc(CCC(=O)N(C)Cc3ccnc4ccccc34)o2)cc1,"inconclusive: 25.9 µM [falling, single point]"
14,N=c1ccn(Cc2ccc(Cl)cc2Cl)cc1,"inconclusive: 0.731 µM [falling, full curve]"
15,Cc1cc2ccccn2c1C(=O)c1ccc([N+](=O)[O-])cc1[N+](=O)[O-],"inconclusive: 20.6 µM [falling, single point]"
16,Fc1ccc(-c2nnc3sc(C4COc5ccccc5O4)nn23)cc1 (configuration not stated),"inconclusive: 15.8 µM [activator, partial curve, poor fit]"
17,O=C(COc1ccccc1)N/N=C/c1ccc([N+](=O)[O-])o1,"inconclusive: 29.1 µM [falling, single point]"
18,O=C(NCC1CCCO1)C1CCN(S(=O)(=O)c2cccc3cccnc23)CC1 (configuration not stated),"inconclusive: 29.1 µM [activator, partial curve, poor fit]"
19,O=C(/C=C/Sc1ccccc1)c1ccccc1,inactive
20,CC1CN(c2nc3c(c(=O)n(Cc4ccc(Cl)c(Cl)c4)c(=O)n3C)n2C)CC(C)O1 (configuration not stated),"inconclusive: 14.6 µM [falling, single point]"
21,O=C(Nc1nc2ccccc2n1Cc1ccc(Cl)cc1)c1ccco1,"inconclusive: 29.1 µM [falling, single point]"

# 2 of the compounds above, with tabs:
row	SMILES	Potency
6	Cc1ccc(-c2cc(C(=O)Nc3ccccc3C(N)=O)c3ccccc3n2)o1	inactive
7	COc1ccc([N+](=O)[O-])cc1NC(=S)NC(NC(=O)Cc1ccc(OC)c(OC)c1)C(Cl)(Cl)Cl (configuration not stated)	inconclusive: 9.2 µM [falling, partial curve, poor fit]

# The results go on.

row,SMILES,Potency
1,OC(COCC(F)(F)C(F)(F)C(F)(F)C(F)F)Cn1c2ccccc2c2ccccc21 (configuration not stated),"inconclusive: 25.9 µM [falling, single point]"
2,Cn1c(N=Nc2ccccc2)nc2ccccc21,"inconclusive: 29.1 µM [falling, partial curve, poor fit]"
3,CCCCN1CCCc2cc(CN(CCCN3CCOCC3)C(=O)Nc3ccc(OCC)cc3)ccc21,"inconclusive: 16.4 µM [falling, single point]"
4,S=c1[nH]cnc2sc(-c3ccccc3)cc12,inactive
5,Cc1cc(C)n2nc(SCC(=O)NC3CCCCC3C)nc2n1 (configuration not stated),inactive
6,N=c1c2c(ncn1Cc1ccco1)Oc1ccc3ccccc3c1C2c1ccccc1 (configuration not stated),"inconclusive: 23.1 µM [falling, single point]"
7,CCN(C(=O)c1cc2c(s1)-c1ccccc1OC2)c1cc(Cl)ccc1OC,inactive
8,COC(=O)C1C(=O)c2c([nH]c(C(=O)OC3CCCCCC3)c2C)CC1C (configuration not stated),"inconclusive: 6.51 µM [falling, single point]"
9,O=C(CSc1nc2ccc([N+](=O)[O-])cc2[nH]1)NC1CCCCCC1,"inconclusive: 29.1 µM [falling, single point]"
10,CCc1nn2c(=O)cc(COC(=O)c3ccc(SC)cc3OC)nc2s1,inactive
11,O=C(CN(C(=O)c1ccc(Cl)cc1)C1CCCCC1)Nc1ccc(Cl)c([N+](=O)[O-])c1,"inconclusive: 29.1 µM [falling, single point]"
12,CCCCC(=O)NC(c1ccc(Cl)cc1)c1ccc2cccnc2c1O (configuration not stated),inactive
13,COc1ccc(CCNC(=O)c2cc3c(=O)n4ccccc4nc3n(C3CCCCC3)c2=N)cc1,"inconclusive: 29.1 µM [falling, single point]"
14,NCCCN1CCOCC1,"inconclusive: 3.26 µM [activator, partial curve, poor fit]"
15,Cc1cc(C)c(S(=O)(=O)/N=C2/C=C(Sc3ncn[nH]3)C(=O)c3ccccc32)cc1C,"inconclusive: 29.1 µM [falling, single point]"
16,CC(C)CC(=O)N1CCN(c2ccc([N+](=O)[O-])c(NCc3ccccc3)c2)CC1,"inconclusive: 23.1 µM [falling, single point]"
17,CC1CCCCC1NC(=O)CN1C(=O)c2cccc(N)c2C1=O (configuration not stated),"inconclusive: 10.3 µM [activator, partial curve]"
18,CCOc1ccccc1NC(=O)NCCn1c(=O)oc2ccc(C)cc21,inactive
19,Cc1cccc(NC(=O)/C=C/c2ccc(Cl)cc2)n1,inactive
20,Cc1ccc2sc(N3CCN(C(=O)CCS(=O)(=O)c4ccc(F)cc4)CC3)nc2c1C,"inconclusive: 29.1 µM [falling, single point]"
21,O=S(=O)(c1ccc(Cl)s1)N1CCc2ccccc2C1,"inconclusive: 29.1 µM [activator, single point]"

# Part of the list above, as tab-separated lines.
row	SMILES	Potency
2	Cn1c(N=Nc2ccccc2)nc2ccccc21	inconclusive: 29.1 µM [falling, partial curve, poor fit]
19	Cc1cccc(NC(=O)/C=C/c2ccc(Cl)cc2)n1	inactive
